Results are given in words; binding and its absence hold for the method and conditions named.
Tests used:
[1] = molecular target: UIM peptide 222-241 of ataxin-3 (UniProt P54252); experiment: native MS; nanoESI-MS; equimolar QBP1 (for the TEV-cleaved MBP fusion the ratio is not told); both purified
[2] = molecular target: UIM peptide 222-264 of ataxin-3 (UniProt P54252); experiment: as above
[3] = molecular target: Josephin domain alone (ataxin-3 residues 1-182) (UniProt P54252); experiment: native MS; nanoESI-MS; 10 μM protein and 50 μM QBP1 (five-fold molar excess) in 250 mM ammonium hydrogen carbonate, 1 mM dithiothreitol, pH 7.8; both purified
[4] = molecular target: Josephin domain alone (ataxin-3 residues 1-182) (UniProt P54252); experiment: 1H T1rho NMR (signal of the peptide); 50 μM QBP1 and 10 μM protein in 250 mM ammonium hydrogen carbonate, 10% (v/v) D2O; 100 ms spin-lock; methyl region 0.45-0.75 ppm integrated; both purified

Protein sequences, listed by entry. Tags and fused reporters are not part of them. Residues count along the entry.
Josephin domain alone (ataxin-3 residues 1-182) (P54252, residues 1-182): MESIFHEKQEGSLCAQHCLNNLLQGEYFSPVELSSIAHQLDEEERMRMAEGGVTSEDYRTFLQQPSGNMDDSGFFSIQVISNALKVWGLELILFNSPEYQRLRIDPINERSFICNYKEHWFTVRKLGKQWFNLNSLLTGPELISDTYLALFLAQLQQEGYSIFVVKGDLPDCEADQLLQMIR
UIM peptide 222-264 of ataxin-3 (P54252, residues 222-264): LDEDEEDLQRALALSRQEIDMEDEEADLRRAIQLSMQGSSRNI
UIM peptide 222-241 of ataxin-3 (P54252, residues 222-241): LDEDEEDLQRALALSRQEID

Binder: SNWKWWPGIFD (N-terminally acetylated) [polyQ binding peptide 1]
- binding [1]: no binding
- binding [2]: no binding
- binding [3]: no binding (tested: 10 μM protein and 50 μM QBP1)
- binding [4]: no binding (tested: 50 μM QBP1 and 10 μM protein)
